No constants are given. Whether binding was seen depends on the method and setting.

Amino acid sequences for entries named in this document (tags omitted). A change or cut given only in a name is not applied to a line headed by its entry.
UniProt P02454: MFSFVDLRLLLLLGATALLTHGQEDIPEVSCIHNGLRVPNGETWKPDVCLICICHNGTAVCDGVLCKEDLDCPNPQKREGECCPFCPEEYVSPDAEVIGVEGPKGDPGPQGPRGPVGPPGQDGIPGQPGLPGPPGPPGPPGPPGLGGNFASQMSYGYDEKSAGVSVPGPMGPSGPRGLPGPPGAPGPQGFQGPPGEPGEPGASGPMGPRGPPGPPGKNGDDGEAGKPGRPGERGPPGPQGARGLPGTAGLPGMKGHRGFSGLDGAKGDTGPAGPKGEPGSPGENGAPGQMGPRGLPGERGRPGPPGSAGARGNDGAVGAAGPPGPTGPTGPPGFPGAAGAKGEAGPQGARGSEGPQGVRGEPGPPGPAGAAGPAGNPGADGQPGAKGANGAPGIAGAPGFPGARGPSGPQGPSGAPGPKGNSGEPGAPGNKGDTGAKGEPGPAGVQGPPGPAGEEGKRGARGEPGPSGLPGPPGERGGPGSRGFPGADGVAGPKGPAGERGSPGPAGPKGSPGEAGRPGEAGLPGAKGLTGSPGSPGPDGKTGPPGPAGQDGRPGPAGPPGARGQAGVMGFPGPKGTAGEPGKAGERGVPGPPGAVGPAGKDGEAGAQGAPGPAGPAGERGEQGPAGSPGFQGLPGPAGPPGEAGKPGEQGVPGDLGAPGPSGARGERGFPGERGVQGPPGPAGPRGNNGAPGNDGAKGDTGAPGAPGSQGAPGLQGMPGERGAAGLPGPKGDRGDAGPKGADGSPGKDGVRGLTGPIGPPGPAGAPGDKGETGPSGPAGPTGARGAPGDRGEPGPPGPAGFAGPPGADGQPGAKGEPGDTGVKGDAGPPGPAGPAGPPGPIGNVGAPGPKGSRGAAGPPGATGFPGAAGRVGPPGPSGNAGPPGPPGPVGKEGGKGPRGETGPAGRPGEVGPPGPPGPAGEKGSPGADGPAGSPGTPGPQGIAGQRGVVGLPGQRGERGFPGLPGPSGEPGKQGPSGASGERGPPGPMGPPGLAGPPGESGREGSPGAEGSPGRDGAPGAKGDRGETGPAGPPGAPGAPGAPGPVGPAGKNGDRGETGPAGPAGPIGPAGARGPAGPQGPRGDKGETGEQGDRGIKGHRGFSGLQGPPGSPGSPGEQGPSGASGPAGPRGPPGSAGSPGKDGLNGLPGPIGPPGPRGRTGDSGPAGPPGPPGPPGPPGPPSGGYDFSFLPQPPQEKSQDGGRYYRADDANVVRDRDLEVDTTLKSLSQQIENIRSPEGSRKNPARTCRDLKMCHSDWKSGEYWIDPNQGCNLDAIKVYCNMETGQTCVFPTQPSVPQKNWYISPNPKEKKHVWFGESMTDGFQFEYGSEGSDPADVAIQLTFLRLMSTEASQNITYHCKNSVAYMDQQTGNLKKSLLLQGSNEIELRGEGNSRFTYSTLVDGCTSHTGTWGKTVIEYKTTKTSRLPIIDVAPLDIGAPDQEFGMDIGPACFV

Consider one substance from PMC5624629.

The target in this assay is T1, R1R2 peptide.
T1 sequence (peptide): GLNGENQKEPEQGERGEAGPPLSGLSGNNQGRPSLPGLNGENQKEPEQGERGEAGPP
In words: ELISA; R1R2 coated at 20 ug/mL on 96-well plates at 4°C overnight, blocked with 1% BSA; FN or type I collagen (10 ug/mL) added for 2 h at room temperature; detected with rabbit anti-FN or anti-type I collagen antibodies and HRP secondary antibodies, absorbance at 405 nm; both purified.

For the substance “rat type I collagen (from UniProt P02454 152-1207; P02466 86-1125) (complex)”, the binding result is “no binding (tested: 10 μg/mL)”.
